Here are results for 52 compounds from article PMC12040169 (PLOS Biology, 2025).

Structures are written as SMILES. Some of the results follow.

This test has as its system T1, CTL2-GFP (C. trachomatis L2/434/Bu, GFP-expressing).
T1 construct: L2/434/Bu, GFP-expressing
Details: species or system HeLa; Intracellular C. trachomatis growth in HeLa cells, bulk GFP fluorescence relative to DMSO. The note with it: bulk GFP, single well; 28.5 h, 10 µM; inhibitor.
Consider `Cc1cc(CNC(=O)C2=CC(=O)CC(C)(C)O2)no1` [CBK153281], for which the “% of control remaining” value was 87.3339%.

Consider `CCO/C(C)=C/c1sc2ccc3ccccc3c2[n+]1CCCS(=O)(=O)[O-]` [CBK260948], for which the “% of control remaining” value was 100%.

Consider `COc1cccc(Nc2nnc(-c3cc4cc(OC)ccc4oc3=O)s2)c1` [CBK264432], for which the “% of control remaining” value stood at 100%.

As for `O=C(NCCSCc1ccco1)Nc1cccc(Cl)c1` [CBK268277], the “% of control remaining” value came to 91.3561%.

As for `Nc1nc(-c2ccccc2I)n[nH]1` [CBK027413], the “% of control remaining” value was determined as 147.092%.

As for `c1ccc(CCCN2CCN(Cc3ccccn3)CC2)cc1` [CBK263461G], the “% of control remaining” value came to 126.364%.

For `Cc1cc(/C=N\NC(=O)c2cc3ccccc3cc2O)c(C)n1-c1ccccc1` [CBK261801], the “% of control remaining” value was 100%.

Take `COc1ccc(C(=O)CN2CCC3(CC2)CC(=O)c2cc(Br)ccc2O3)cc1` [CBK162265]: the “% of control remaining” value came out at 97.5453%.

Take `CCOC(=O)CCNC(=O)/C=C/c1ccc(C(C)C)cc1` [CBK149643]: the “% of control remaining” value was 122.43%.

`Nc1nc(C2CC(N)C2)cc(N2CCC(Oc3ccccc3F)CC2)n1` (stereo not shown) [CBK306909]: the “% of control remaining” value stood at 129.422%.

As for `NC(=O)Nc1ccc2c(c1)ncn2C1CCCCC1` [CBK288176], the “% of control remaining” value amounted to 152.039%.

Take `COc1ccc(/C=C(\C)C(=O)Nc2cccnc2N2CCNCC2)cc1OC` [CBK034124T]: the “% of control remaining” value is 109.212%.

For `Cc1ccc(-c2nc(C3CCCN3C(=O)C3CC3C(=O)O)n3ccccc23)cc1` (stereo not shown) [CBK046559], the “% of control remaining” value is given as 188.302%.

`CN1CCC(C(=O)Nc2cnc(-c3cccc(OC(F)(F)F)c3)c(-c3cccnc3)n2)CC1` [CBK036882]: the “% of control remaining” value is recorded as 216.342%.

Consider `CCOC(=O)C1CC1CN1CCN(S(=O)(=O)c2ccc(OCC)c3ncccc23)CC1` (stereo not shown) [CBK062785], for which the “% of control remaining” value stood at 117.89%.

Turning to `CC(C)Nc1cncc(OCC2CN(C)CCN2C)n1` (stereo not shown) [CBK115602], the “% of control remaining” value was found to be 100%.

For `C[C@@H]1C(=O)Nc2ccc(F)cc2N1C(=O)N1CCCC1` [CBK007936], the “% of control remaining” value is 105.292%.

For `CCOc1ccc2c(c1)C(=O)c1cc(OCC(=O)O)ccc1-2` [CBK286693], the “% of control remaining” value was found to be 122.836%.

On to `CCCCNc1nnc(-c2nn(C)cc2Cl)s1` [CBK288021], for which the “% of control remaining” value is listed as 117.271%.

Turning to `Nc1ncc(-c2cccs2)nc1-c1ccc(C(=O)O)cc1` [CBK064133], the “% of control remaining” value turned out to be 139.931%.

In the case of `Cc1ccc(S(=O)(=O)NC(C)(C)CSc2nnc[nH]2)cc1` [CBK268374], the “% of control remaining” value is listed as 150.882%.

In the case of `CC(NC(=O)c1n[nH]c2c1CCC2)c1cccnc1` (stereo not shown) [CBK281488], the “% of control remaining” value is recorded as 112.798%.

For the compound `Cc1occc1-c1nnc(SCC(=O)Nc2ccccc2)n1C` [CBK270308], the “% of control remaining” value was 122.398%.

On to `CCNC(=O)CN1CCN(C(C(=O)O)c2c[nH]c3ccc(C)cc23)CC1` (stereo not shown) [CBK286694], for which the “% of control remaining” value amounted to 110.224%.

Turning to `COC(=O)CCc1ccc(S(=O)(=O)N2CCCN(Cc3cccc(Cl)c3Cl)CC2)cc1` [CBK062988], the “% of control remaining” value amounted to 112.292%.

On to `Fc1cc(Br)c(CNCc2ncc[nH]2)c(N2CCCCC2)c1F` [CBK304243], for which the “% of control remaining” value came out at 16.7953%.

Turning to `COc1cc(C(=O)Nc2ccc(N3CCN(C)CC3)cc2)ccc1OCc1ccc(Cl)cc1` [CBK266116], the “% of control remaining” value came out at 100.887%.

Take `Cc1nn(C)cc1CNC(=O)C1C2CCC(C2)C1C(=O)O` (stereo not shown) [CBK286875]: the “% of control remaining” value came to 120.148%.

On to `CCc1nc2c(OCc3ccccc3)cccn2c1N(Cc1ccc(OC)cc1)C(C)=O` [CBK147887], for which the “% of control remaining” value is on record as 122.641%.

As for `Cn1cc(I)c(C(=O)NNC(=S)Nc2ccc(S(N)(=O)=O)cc2)n1` [CBK267066], the “% of control remaining” value is on record as 189.048%.

`CC(=O)NC(Cc1c[nH]c2ccccc12)/C(C)=N/O` (stereo not shown) [CBK022711]: the “% of control remaining” value amounted to 120.72%.

For the compound `O=C(N/N=C/c1cc2c(cc1Br)OCO2)c1ccc(CN2CCOCC2)cc1` [CBK262721], the “% of control remaining” value was found to be 110.159%.

Regarding `O=C(NC1CCCCC1)c1ccc(-n2ccnc2)c(-n2cccc2)c1` [CBK285365], the “% of control remaining” value is given as 106.327%.

Take `Nc1c(N(CCO)C(=O)C2CCCC2)c(=O)[nH]c(=O)n1Cc1ccccc1` [CBK297490]: the “% of control remaining” value was found to be 133.047%.

`CC(C)CNC(=O)N1CCN(C2CCN(C)CC2)CC1` [CBK155902]: the “% of control remaining” value came out at 137.435%.

With `O=P(O)(CCc1ccccc1)CN1CCOCC1` [CBK262305], the “% of control remaining” value worked out at 117.195%.

Take `CCCC/C=C/c1ccc(Nc2ccc3c(c2)OCCO3)nc1` [CBK037774]: the “% of control remaining” value turned out to be 174.511%.

`Nc1ncc(-c2ccc(OC(F)(F)F)cc2)c2cccnc12` [CBK067594]: the “% of control remaining” value turned out to be 108.367%.

In the case of `CC1=CC(=O)Nc2ccccc2S1` [CBK028872], the “% of control remaining” value was 94.7029%.

Turning to `NCCn1cc(-c2cccc(F)c2)c(C2CCOCC2)n1` [CBK281696], the “% of control remaining” value stood at 129.002%.

For `COc1cccc(Oc2nccnc2-c2ccc3c(c2)OCO3)c1` [CBK106704], the “% of control remaining” value worked out at 123.021%.

For `Fc1ccc(-c2[nH]c3ncccc3c2CN2CCOCC2)cc1` [CBK285310], the “% of control remaining” value was 114.447%.

`CC/C(=N\C(N)=O)c1ccccc1` [CBK009865]: the “% of control remaining” value worked out at 141.054%.

`CC(C)S(=O)(=O)n1c(=O)n(Cc2ccc(S(C)(=O)=O)cc2)c2ccccc21` [CBK106529]: the “% of control remaining” value is listed as 129.707%.

As to `COc1ccc(C(C)C)cc1-c1cn2ccnc2c(N(C)CCN(C)C)n1` [CBK066368], the “% of control remaining” value was 202.982%.

For the compound `O=C(O)c1cccc(-c2ccc(/C=C\c3nc(O)c([N+](=O)[O-])c(=O)[nH]3)o2)c1` [CBK267209], the “% of control remaining” value stood at 84.138%.

On to `Cc1cccc([C@@H]2CN(Cc3ccccc3)C[C@]23CCCCC(=O)N3)n1` [CBK283341], for which the “% of control remaining” value is reported as 133.465%.

As to `O=C(O)CCn1cc(CN2CCOc3ccccc3C2)cn1` [CBK306507], the “% of control remaining” value is on record as 145.513%.

Turning to `Cc1onc(-c2ccccc2)c1C(=O)Nc1ccccc1N1CCCNCC1` [CBK038929T], the “% of control remaining” value turned out to be 133.816%.

As for `COc1ccc(C2c3cc(OC)c(OC)cc3CC(=O)N2c2ccc(C(=O)O)cc2)cc1OC` (stereo not shown) [CBK296082], the “% of control remaining” value is 145.541%.

For `c1ccc2c(c1)nnn2Cc1nnc2sc(-c3cnccn3)nn12` [CBK268393], the “% of control remaining” value worked out at 139.432%.

For the compound `COc1ccc(S(=O)(=O)N2CCC(C(=O)Nc3ccccc3SC)CC2)cc1C` [CBK267960], the “% of control remaining” value is listed as 114.175%.
